Measurements: the supplement of paper PMC10849652
The list shows a part of the results.

Sequences of proteins named here, by UniProt entry; tags and fusion partners are left off. A change or cut given only in a name is not applied to a line headed by its entry.
UniProt P11234: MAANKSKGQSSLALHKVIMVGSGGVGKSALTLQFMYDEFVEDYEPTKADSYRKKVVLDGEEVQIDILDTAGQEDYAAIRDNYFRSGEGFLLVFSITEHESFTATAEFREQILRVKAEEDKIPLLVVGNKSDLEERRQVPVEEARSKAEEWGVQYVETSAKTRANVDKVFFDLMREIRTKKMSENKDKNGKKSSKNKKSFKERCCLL
UniProt P20338: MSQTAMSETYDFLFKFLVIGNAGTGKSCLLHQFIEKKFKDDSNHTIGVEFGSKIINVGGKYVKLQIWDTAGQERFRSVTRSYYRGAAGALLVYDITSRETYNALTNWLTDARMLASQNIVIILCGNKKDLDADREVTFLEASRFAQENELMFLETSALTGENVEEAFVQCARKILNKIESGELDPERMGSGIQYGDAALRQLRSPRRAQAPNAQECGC
UniProt Q15274: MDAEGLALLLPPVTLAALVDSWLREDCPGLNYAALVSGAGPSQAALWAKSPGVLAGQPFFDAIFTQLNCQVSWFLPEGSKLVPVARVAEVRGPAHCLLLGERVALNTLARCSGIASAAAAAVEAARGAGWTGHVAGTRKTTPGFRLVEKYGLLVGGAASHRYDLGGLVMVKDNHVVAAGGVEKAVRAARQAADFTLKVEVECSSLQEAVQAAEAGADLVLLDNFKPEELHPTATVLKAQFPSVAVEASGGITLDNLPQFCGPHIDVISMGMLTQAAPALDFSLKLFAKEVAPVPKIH
UniProt Q9Y3L5: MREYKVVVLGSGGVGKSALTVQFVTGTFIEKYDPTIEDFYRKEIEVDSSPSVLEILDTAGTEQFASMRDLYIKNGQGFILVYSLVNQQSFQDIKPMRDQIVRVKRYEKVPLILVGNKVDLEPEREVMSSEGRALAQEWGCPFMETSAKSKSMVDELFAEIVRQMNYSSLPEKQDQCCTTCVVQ
UniProt P61006: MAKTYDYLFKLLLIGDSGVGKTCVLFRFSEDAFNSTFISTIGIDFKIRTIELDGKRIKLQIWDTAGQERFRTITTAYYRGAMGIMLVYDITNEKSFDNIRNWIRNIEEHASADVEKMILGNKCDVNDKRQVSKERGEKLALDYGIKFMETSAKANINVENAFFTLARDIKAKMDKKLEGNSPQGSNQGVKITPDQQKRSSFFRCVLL
UniProt Q9ULC3: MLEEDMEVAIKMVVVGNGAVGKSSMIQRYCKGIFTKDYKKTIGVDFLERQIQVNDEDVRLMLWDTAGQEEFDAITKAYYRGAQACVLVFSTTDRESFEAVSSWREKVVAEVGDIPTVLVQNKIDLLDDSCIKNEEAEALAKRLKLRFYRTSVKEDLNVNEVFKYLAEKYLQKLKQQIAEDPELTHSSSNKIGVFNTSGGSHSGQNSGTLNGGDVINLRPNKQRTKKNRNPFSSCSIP
UniProt P46060: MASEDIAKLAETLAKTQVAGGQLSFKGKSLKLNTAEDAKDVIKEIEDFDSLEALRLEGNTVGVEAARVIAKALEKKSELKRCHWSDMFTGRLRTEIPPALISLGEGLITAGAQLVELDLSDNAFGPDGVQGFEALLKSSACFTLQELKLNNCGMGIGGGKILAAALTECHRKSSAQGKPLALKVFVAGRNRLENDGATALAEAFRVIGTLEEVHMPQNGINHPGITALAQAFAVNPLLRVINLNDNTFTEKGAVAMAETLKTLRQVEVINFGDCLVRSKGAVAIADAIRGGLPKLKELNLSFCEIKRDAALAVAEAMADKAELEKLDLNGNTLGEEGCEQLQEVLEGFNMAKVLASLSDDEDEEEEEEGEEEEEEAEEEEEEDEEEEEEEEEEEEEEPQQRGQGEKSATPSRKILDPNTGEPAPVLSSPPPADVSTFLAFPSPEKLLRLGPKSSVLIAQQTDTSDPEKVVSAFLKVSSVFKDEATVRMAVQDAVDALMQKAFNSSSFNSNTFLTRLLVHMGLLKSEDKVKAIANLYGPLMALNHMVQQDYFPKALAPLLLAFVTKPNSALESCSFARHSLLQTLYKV
UniProt Q7Z7A4: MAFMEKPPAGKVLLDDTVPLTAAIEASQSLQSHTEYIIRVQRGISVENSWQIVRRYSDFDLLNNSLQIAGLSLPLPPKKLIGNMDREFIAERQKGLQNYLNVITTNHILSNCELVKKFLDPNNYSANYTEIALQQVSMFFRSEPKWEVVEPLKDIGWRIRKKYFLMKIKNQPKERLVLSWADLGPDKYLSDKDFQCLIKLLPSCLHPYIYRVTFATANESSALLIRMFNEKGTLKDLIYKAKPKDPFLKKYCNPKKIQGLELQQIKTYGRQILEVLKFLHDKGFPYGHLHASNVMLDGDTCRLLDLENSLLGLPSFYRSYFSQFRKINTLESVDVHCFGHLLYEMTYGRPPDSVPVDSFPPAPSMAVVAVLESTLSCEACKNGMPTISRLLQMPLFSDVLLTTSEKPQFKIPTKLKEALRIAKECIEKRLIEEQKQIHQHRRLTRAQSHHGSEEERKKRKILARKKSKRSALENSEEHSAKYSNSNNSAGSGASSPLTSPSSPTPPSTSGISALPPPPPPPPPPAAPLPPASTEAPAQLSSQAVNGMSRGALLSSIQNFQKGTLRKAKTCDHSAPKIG
UniProt O43502: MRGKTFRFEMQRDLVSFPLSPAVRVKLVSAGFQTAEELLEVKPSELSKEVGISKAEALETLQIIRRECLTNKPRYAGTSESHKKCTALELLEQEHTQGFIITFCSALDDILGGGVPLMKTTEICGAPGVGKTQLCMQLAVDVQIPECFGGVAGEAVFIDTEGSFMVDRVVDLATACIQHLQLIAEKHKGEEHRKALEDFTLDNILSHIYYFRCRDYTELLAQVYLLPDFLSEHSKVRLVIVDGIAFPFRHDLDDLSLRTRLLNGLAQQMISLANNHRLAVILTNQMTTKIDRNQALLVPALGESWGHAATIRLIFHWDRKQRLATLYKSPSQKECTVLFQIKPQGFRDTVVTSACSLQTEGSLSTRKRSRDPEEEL
UniProt Q9Y4B4: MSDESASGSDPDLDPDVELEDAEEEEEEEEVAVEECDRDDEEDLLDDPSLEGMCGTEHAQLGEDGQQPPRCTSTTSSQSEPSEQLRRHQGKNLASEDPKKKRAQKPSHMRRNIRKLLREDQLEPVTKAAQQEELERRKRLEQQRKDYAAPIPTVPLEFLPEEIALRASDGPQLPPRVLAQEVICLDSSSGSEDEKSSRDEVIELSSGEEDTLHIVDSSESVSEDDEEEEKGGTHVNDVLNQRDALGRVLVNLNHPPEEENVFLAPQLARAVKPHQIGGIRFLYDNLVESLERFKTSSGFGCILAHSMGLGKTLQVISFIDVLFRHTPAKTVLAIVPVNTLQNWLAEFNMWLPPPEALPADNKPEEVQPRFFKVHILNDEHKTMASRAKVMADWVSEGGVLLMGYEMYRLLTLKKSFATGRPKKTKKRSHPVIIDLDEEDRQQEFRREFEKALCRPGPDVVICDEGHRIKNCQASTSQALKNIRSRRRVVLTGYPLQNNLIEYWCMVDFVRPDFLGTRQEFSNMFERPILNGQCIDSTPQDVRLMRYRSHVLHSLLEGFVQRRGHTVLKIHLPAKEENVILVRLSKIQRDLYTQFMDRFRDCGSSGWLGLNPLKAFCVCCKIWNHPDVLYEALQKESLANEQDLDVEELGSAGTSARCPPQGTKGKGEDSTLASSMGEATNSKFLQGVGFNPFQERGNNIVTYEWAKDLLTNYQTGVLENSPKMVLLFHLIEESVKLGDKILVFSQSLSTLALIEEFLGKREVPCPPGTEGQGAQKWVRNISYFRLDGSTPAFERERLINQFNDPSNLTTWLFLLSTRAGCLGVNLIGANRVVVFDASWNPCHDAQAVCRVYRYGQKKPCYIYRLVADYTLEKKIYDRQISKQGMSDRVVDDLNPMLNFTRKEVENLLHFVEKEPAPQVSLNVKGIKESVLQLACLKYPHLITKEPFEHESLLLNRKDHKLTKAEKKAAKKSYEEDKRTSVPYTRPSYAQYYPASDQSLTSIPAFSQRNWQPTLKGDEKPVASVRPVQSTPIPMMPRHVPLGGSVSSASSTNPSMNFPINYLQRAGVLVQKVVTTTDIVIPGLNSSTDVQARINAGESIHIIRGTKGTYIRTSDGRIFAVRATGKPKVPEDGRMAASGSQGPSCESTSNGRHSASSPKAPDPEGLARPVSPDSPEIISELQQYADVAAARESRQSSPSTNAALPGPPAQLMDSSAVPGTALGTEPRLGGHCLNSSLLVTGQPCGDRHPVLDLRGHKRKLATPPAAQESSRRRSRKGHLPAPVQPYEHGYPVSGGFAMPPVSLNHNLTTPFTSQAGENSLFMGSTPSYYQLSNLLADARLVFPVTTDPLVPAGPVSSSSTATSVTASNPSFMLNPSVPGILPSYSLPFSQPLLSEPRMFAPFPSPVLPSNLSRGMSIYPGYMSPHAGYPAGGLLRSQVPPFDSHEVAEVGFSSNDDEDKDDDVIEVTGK
UniProt Q9ULZ3, whole entry, looked up: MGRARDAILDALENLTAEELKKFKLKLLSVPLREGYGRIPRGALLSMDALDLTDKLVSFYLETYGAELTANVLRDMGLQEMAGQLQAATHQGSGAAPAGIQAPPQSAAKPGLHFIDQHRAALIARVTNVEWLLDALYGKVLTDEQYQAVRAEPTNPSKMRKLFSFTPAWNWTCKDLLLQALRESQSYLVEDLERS
UniProt P54727: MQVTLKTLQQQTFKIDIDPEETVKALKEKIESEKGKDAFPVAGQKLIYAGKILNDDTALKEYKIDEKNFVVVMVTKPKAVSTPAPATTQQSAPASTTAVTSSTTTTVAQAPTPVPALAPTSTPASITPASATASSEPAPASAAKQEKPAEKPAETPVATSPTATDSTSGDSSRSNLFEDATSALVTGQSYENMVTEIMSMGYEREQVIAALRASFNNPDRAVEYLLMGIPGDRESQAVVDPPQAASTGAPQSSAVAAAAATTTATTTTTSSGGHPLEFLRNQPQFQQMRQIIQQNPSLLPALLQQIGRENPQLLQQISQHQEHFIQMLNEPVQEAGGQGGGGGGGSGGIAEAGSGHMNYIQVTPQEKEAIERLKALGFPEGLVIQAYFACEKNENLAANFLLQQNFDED
UniProt Q9H0U4: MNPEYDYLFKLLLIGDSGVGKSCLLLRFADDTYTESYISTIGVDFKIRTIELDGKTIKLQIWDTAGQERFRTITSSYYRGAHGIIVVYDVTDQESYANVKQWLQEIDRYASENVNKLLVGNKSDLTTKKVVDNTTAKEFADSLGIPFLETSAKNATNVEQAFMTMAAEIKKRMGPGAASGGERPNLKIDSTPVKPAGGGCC
UniProt P53611: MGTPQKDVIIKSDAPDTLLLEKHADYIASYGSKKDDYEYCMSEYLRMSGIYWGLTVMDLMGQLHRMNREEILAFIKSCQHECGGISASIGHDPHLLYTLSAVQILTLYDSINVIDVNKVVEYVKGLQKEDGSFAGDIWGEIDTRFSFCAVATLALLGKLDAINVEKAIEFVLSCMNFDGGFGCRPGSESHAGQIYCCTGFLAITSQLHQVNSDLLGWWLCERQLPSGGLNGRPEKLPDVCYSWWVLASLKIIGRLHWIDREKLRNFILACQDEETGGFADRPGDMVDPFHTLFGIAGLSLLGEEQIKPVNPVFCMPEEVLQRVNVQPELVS

How the values were obtained:
Experiment in all cases: log2 fold change, soluble protein after heating vs DMSO (PISA); higher = thermal stabilisation; K562 lysate, 10 uM; active = over 0.2 and 3.5 SD of the protein, either way, in both replicates (recomputed)
lapatinib = compound: CS(=O)(=O)CCNCc1ccc(-c2ccc3ncnc(Nc4ccc(OCc5cccc(F)c5)c(Cl)c4)c3c2)o1 [lapatinib]
How it was run: (§1)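 K562 pellets were dounce-homogenised in PBS pH 7.4 with 1 mM MgCl2, and the crude extract at 1 mg/mL protein was treated with 10 μM compound for 30 min. Aliquots were heated for 3 min across 48°C-58°C, pooled, and brought to 0.5% NP-40 at 4°C; soluble protein was the supernatant after 21,000xg for 90 min. Soluble protein was quantified by TMTpro 16plex LC-MS/MS with channel sums equalised, and reported as log2 fold change in thermal stability against DMSO controls, with values from duplicates.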

pictilisib = compound: CS(=O)(=O)N1CCN(Cc2cc3nc(-c4cccc5[nH]ncc45)nc(N4CCOCC4)c3s2)CC1 [pictilisib]
How it was run: as §1

crizotinib = compound: C[C@@H](Oc1cc(-c2cnn(C3CCNCC3)c2)cnc1N)c1c(Cl)ccc(F)c1Cl [crizotinib]
How it was run: as §1

[1] = compound: C[C@H](C1=CC=C(C=C1)C(=O)NC2=C3C=CNC3=NC=C2)N
How it was run: as §1

duvelisib = compound: C[C@H](Nc1ncnc2nc[nH]c12)c1cc2cccc(Cl)c2c(=O)n1-c1ccccc1 [duvelisib]
How it was run: as §1

gandotinib = compound: Cc1cc(Nc2cc(CN3CCOCC3)c3nc(C)c(Cc4ccc(Cl)cc4F)n3n2)n[nH]1 [gandotinib]
How it was run: as §1

tozasertib = compound: Cc1cc(Nc2cc(N3CCN(C)CC3)nc(Sc3ccc(NC(=O)C4CC4)cc3)n2)n[nH]1 [tozasertib]
How it was run: as §1

doramapimod = compound: Cc1ccc(-n2nc(C(C)(C)C)cc2NC(=O)Nc2ccc(OCCN3CCOCC3)c3ccccc23)cc1 [doramapimod]
How it was run: as §1

bafetinib = compound: Cc1ccc(NC(=O)c2ccc(CN3CC[C@H](N(C)C)C3)c(C(F)(F)F)c2)cc1Nc1nccc(-c2cncnc2)n1 [bafetinib]
How it was run: as §1

[2] = compound: Cc1cccc(CC(=O)N2CCc3c2ccc(-c2cn(C)c4ncnc(N)c24)c3F)n1
How it was run: as §1

nilotinib = compound: Cc1cn(-c2cc(NC(=O)c3ccc(C)c(Nc4nccc(-c5cccnc5)n4)c3)cc(C(F)(F)F)c2)cn1 [nilotinib]
How it was run: as §1

[3] = compound: Cc1nc(Nc2n[nH]c3c2CN(C(=O)N[C@H](CN(C)C)c2ccccc2)C3(C)C)c2sccc2n1
How it was run: as §1

dasatinib = compound: Cc1nc(Nc2ncc(C(=O)Nc3c(C)cccc3Cl)s2)cc(N2CCN(CCO)CC2)n1 [dasatinib]
How it was run: as §1

[4] = compound: Cc1ncc(-c2ccnc(Nc3ccc(S(C)(=O)=O)cc3)n2)n1C(C)C
How it was run: as §1

[5] = compound: Cn1cc(-c2ccc3c(c2)CCN3C(=O)Cc2cccc(C(F)(F)F)c2)c2c(N)ncnc21
How it was run: as §1

quisinostat = compound: Cn1cc(CNCC2CCN(c3ncc(C(=O)NO)cn3)CC2)c2ccccc21 [quisinostat]
How it was run: as §1

tipifarnib = compound: Cn1cncc1[C@@](N)(c1ccc(Cl)cc1)c1ccc2c(c1)c(-c1cccc(Cl)c1)cc(=O)n2C [tipifarnib]
How it was run: as §1

[6] = compound: NC(=O)Nc1cc(-c2cccc(F)c2)sc1C(=O)N[C@H]1CCCNC1
How it was run: as §1

[7] = compound: NC(=O)c1cnc(N[C@@H]2CCCC[C@@H]2N)nc1Nc1cccc(-n2nccn2)c1
How it was run: as §1

[8] = compound: NC1(c2ccc(-c3nc4ccn5c(=O)[nH]nc5c4cc3-c3ccccc3)cc2)CCC1
How it was run: as §1

Row | Target | log2 fold change (lapatinib) | log2 fold change (pictilisib) | log2 fold change (crizotinib) | log2 fold change [1] | log2 fold change (duvelisib) | log2 fold change (gandotinib) | log2 fold change (tozasertib) | log2 fold change (doramapimod) | log2 fold change (bafetinib) | log2 fold change [2] | log2 fold change (nilotinib) | log2 fold change [3] | log2 fold change (dasatinib) | log2 fold change [4] | log2 fold change [5] | log2 fold change (quisinostat) | log2 fold change (tipifarnib) | log2 fold change [6] | log2 fold change [7] | log2 fold change [8]
1 | RALB isoform 2 (UniProt P11234) | inactive: -0.05 | inactive: -0.089 | inactive: 0.031 | inactive: -0.164 | inactive: 0.016 | inactive: 0.095 | inactive: 0.074 | inactive: 0.009 | inactive: -0.002 | inactive: 0.144 | inactive: 0.031 | inactive: -0.006 | inactive: -0.008 | inactive: -0.009 | inactive: -0.01 | inactive: 0.035 | inactive: 0.005 | inactive: -0.032 | inactive: 0.016 | inactive: 0.028
2 | RAB4A (UniProt P20338) | inactive: -0.003 | inactive: -0.032 | inactive: 0.036 | inactive: 0.022 | inactive: 0 | inactive: -0.062 | inactive: 0.02 | inactive: 0.036 | inactive: -0.014 | inactive: -0.072 | inactive: 0.09 | inactive: 0.008 | inactive: 0.015 | inactive: 0.003 | inactive: 0.023 | inactive: 0 | inactive: -0.037 | inactive: -0.104 | inactive: -0.049 | inactive: 0.026
3 | QPRT (UniProt Q15274) | inactive: -0.009 | inactive: 0.01 | inactive: 0 | inactive: -0.016 | inactive: 0.048 | inactive: 0.031 | inactive: 0.01 | inactive: -0.039 | inactive: 0.018 | inactive: 0.057 | inactive: 0.016 | inactive: -0.007 | inactive: -0.033 | inactive: 0.025 | inactive: -0.006 | inactive: 0.045 | inactive: -0.011 | inactive: -0.062 | inactive: 0.003 | inactive: -0.004
4 | RAP2C (UniProt Q9Y3L5) | inactive: 0.062 | inactive: -0.135 | inactive: -0.028 | inactive: 0.038 | inactive: 0.053 | inactive: -0.077 | inactive: 0.086 | inactive: -0.004 | inactive: 0.085 | inactive: 0.157 | inactive: 0.058 | inactive: 0.015 | inactive: 0.035 | inactive: -0.162 | inactive: 0.088 | inactive: 0.054 | inactive: -0.122 | inactive: -0.055 | inactive: 0.006 | inactive: -0.052
5 | RAB8A (UniProt P61006) | inactive: -0.039 | inactive: -0.017 | inactive: 0.102 | inactive: -0.038 | inactive: 0.009 | inactive: -0.025 | inactive: 0.028 | inactive: -0.021 | inactive: -0.002 | inactive: -0.012 | inactive: -0.043 | inactive: -0.009 | inactive: -0.028 | inactive: -0.1 | inactive: 0.006 | inactive: 0.091 | inactive: -0.059 | inactive: -0.064 | inactive: -0.048 | inactive: 0.042
6 | RAB23 (UniProt Q9ULC3) | inactive: 0.007 | inactive: -0.004 | inactive: 0.074 | inactive: -0.032 | inactive: -0.051 | inactive: 0.028 | inactive: 0.017 | inactive: 0.08 | inactive: 0.041 | inactive: 0.127 | inactive: -0.018 | inactive: 0.011 | inactive: -0.066 | inactive: -0.019 | inactive: 0.016 | inactive: -0.004 | inactive: 0.029 | inactive: -0.015 | inactive: 0.011 | inactive: -0.047
7 | RANGAP1 (UniProt P46060) | inactive: -0.012 | inactive: 0.005 | inactive: -0.014 | inactive: -0.016 | inactive: -0.028 | inactive: -0.046 | inactive: 0.005 | inactive: -0.008 | inactive: 0.015 | inactive: -0.003 | inactive: 0.014 | inactive: -0.004 | inactive: -0.026 | inactive: 0.01 | inactive: 0.008 | inactive: -0.013 | inactive: -0.032 | inactive: 0.004 | inactive: 0.002 | inactive: 0.002
8 | PXK (UniProt Q7Z7A4) | inactive: -0.046 | inactive: -0.018 | inactive: 0.001 | inactive: -0.06 | inactive: -0.005 | inactive: 0.047 | inactive: -0.036 | inactive: 0.025 | inactive: -0.034 | inactive: 0.014 | inactive: 0.031 | inactive: -0.031 | inactive: 0.207 | inactive: -0.034 | inactive: 0.023 | inactive: 0.006 | inactive: 0.013 | inactive: 0.006 | inactive: -0.016 | inactive: 0.007
9 | RAD51C (UniProt O43502) | inactive: -0.042 | inactive: -0.023 | inactive: -0.074 | inactive: -0.006 | inactive: 0.022 | inactive: 0.065 | inactive: -0.089 | inactive: 0.074 | inactive: -0.119 | inactive: -0.044 | inactive: 0.013 | inactive: 0.021 | inactive: -0.014 | inactive: 0.009 | inactive: -0.019 | inactive: 0.036 | inactive: 0.03 | inactive: 0.051 | inactive: 0.042 | inactive: -0.021
10 | RAD54L2 (UniProt Q9Y4B4) | inactive: -0.209 | inactive: -0.018 | inactive: -0.037 | inactive: -0.174 | inactive: 0.026 | inactive: -0.163 | inactive: -0.166 | inactive: -0.02 | inactive: -0.095 | inactive: 0.067 | inactive: -0.037 | inactive: -0.03 | inactive: -0.053 | inactive: -0.047 | inactive: -0.15 | inactive: -0.009 | inactive: -0.105 | inactive: -0.013 | inactive: 0.035 | inactive: -0.091
11 | PYCARD (UniProt Q9ULZ3) | inactive: 0.003 | inactive: -0.052 | inactive: 0.019 | inactive: 0 | inactive: -0.014 | inactive: 0.049 | inactive: 0.037 | inactive: 0.013 | inactive: 0.03 | inactive: 0.007 | inactive: 0.004 | inactive: 0.029 | inactive: 0.045 | inactive: 0.023 | inactive: 0.015 | inactive: 0.019 | inactive: 0 | inactive: -0.034 | inactive: 0.007 | inactive: 0.022
12 | RAB3IL1 (UniProt E9PK89) | inactive: -0.025 | inactive: 0.063 | inactive: 0.039 | inactive: 0.045 | inactive: -0.036 | inactive: 0.006 | inactive: 0.059 | inactive: -0.117 | inactive: -0.094 | inactive: 0.057 | inactive: -0.039 | inactive: -0.124 | inactive: 0.08 | inactive: 0.003 | inactive: -0.084 | inactive: 0.027 | inactive: 0.061 | inactive: -0.086 | inactive: -0.012 | inactive: 0.157
13 | RAD23B (UniProt P54727) | inactive: 0.013 | inactive: 0.02 | inactive: -0.01 | inactive: 0.013 | inactive: 0.056 | inactive: -0.001 | inactive: 0.021 | inactive: 0.005 | inactive: 0.047 | inactive: 0.011 | inactive: -0.009 | inactive: -0.001 | inactive: 0.02 | inactive: -0.004 | inactive: 0 | inactive: -0.023 | inactive: -0.013 | inactive: -0.001 | inactive: 0.012 | inactive: 0.018
14 | RAB1B (UniProt Q9H0U4) | inactive: 0.021 | inactive: 0.053 | inactive: 0.031 | active: -0.35 | inactive: 0.033 | inactive: 0.156 | inactive: 0.011 | inactive: -0.052 | inactive: -0.038 | active: 0.242 | inactive: 0.016 | inactive: 0.003 | inactive: -0.058 | inactive: -0.029 | inactive: -0.001 | inactive: 0.016 | inactive: -0.04 | inactive: -0.052 | inactive: -0.041 | inactive: 0.002
15 | RAF1 isoform 2 (UniProt P04049) | inactive: 0.077 | inactive: 0.014 | inactive: -0.047 | inactive: 0.046 | inactive: -0.014 | inactive: -0.118 | inactive: 0.025 | inactive: 0.025 | inactive: -0.004 | inactive: -0.016 | inactive: 0.054 | inactive: -0.005 | inactive: 0.169 | inactive: -0.094 | inactive: -0.022 | inactive: -0.06 | inactive: -0.036 | inactive: 0.063 | inactive: -0.021 | inactive: -0.008
16 | RABGGTB (UniProt P53611) | inactive: -0.02 | inactive: 0.006 | inactive: -0.031 | inactive: 0.135 | inactive: 0.043 | inactive: -0.051 | inactive: -0.023 | inactive: 0.016 | inactive: -0.087 | inactive: 0.028 | inactive: 0.005 | inactive: 0.003 | inactive: 0.017 | inactive: 0.006 | inactive: -0.009 | inactive: -0.02 | inactive: -0.013 | inactive: 0.033 | inactive: -0.016 | inactive: 0.031

Look-ups from the results shown:
log2 fold change (tozasertib) with RAP2C (UniProt Q9Y3L5) is entered as inactive: 0.086
log2 fold change [2] with RAD23B (UniProt P54727) is entered as inactive: 0.011
